Source: PubChem BioAssay AID504774 (Drosophila RNAi Screening Center, 2011)
The screen tested about 23,000 reagents; this is an unselected part of those with a known target gene and a result. 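Values are quantile-normalised luminescence on an arbitrary scale; higher means more cells surviving MMS.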 Names joined by + are all predicted targets of the reagent. Reagent sequences are not shown.

- Assay: 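Knock-downs that shift viability of MMS-exposed cells relative to untreated ones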 (primary screen)
- System: Drosophila Kc167 cells
- Reagents: long dsRNA against Drosophila genes, about 0.25 µg dsRNA per well
- Duration: about 6 days: 3 days knock-down, then 3 days with or without MMS
- Conditions: methyl methanesulphonate 0.004% (w/v) for 3 days after knock-down
- Detection: 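Viability in wells given MMS, read as ATP luminescence, normalised by quantiles plate by plate and averaged across replicates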
- Scale: mean viability with MMS and viability with MMS: higher = more surviving cells after MMS

gene	amplicon	mean viability with MMS	viability with MMS, replicate 1	viability with MMS, replicate 2
Ir52b (Ionotropic receptor 52b)	DRSC06263	3.46e6	4.04e6	3.99e6
Abl (Abl tyrosine kinase)	DRSC09661	3.67e6	4.04e6	4.22e6
Abl (Abl tyrosine kinase)	DRSC23306	3.48e6	4.09e6	3.85e6
ced-6	DRSC07591	3.53e6	3.83e6	3.89e6
Urod (Uroporphyrinogen decarboxylase)	DRSC07569	3.41e6	3.84e6	3.91e6
CG3520	DRSC04383	3.67e6	4.12e6	4.19e6
HSPBAP1 (HSPB1 associated protein 1)	DRSC14567	3.66e6	4.12e6	4.17e6
Tim10 + CG42497	DRSC04664	3.38e6	3.70e6	3.82e6
Spn55B (Serpin 55B)	DRSC07694	3.57e6	3.89e6	3.96e6
Spn55B (Serpin 55B)	DRSC21862	3.51e6	4.03e6	3.94e6
Tmtc1 (Transmembrane O-mannosyltransferase targeting cadherins 1)	DRSC00147	3.58e6	3.96e6	4.18e6
Tmtc1 (Transmembrane O-mannosyltransferase targeting cadherins 1)	DRSC00151	3.49e6	3.95e6	3.99e6
Tmtc1 (Transmembrane O-mannosyltransferase targeting cadherins 1)	DRSC00314	3.54e6	4.03e6	4.01e6
Tmtc1 (Transmembrane O-mannosyltransferase targeting cadherins 1)	DRSC00411	3.45e6	3.92e6	3.89e6
l(1)G0289 (lethal (1) G0289)	DRSC18215	3.63e6	4.46e6	3.96e6
Zw10 (Zeste-white 10)	DRSC18793	3.59e6	4.07e6	4.07e6
gprs	DRSC06761	3.56e6	4.01e6	4.07e6
CG11596	DRSC18540	3.49e6	4.06e6	3.87e6
Toll-6	DRSC11304	3.49e6	3.99e6	3.91e6
CG15283	DRSC01980	3.66e6	4.14e6	4.11e6
CG12521	DRSC09893	3.56e6	4.05e6	4.02e6
CG15472	DRSC18055	3.55e6	4.07e6	4.01e6
thoc7	DRSC08512	3.49e6	3.97e6	3.91e6
Ir60b (Ionotropic receptor 60b)	DRSC04217	3.61e6	4.03e6	4.17e6
Cep97 (Centrosomal protein 97kDa)	DRSC00637	3.58e6	4.04e6	4.10e6
cyst (cysts)	DRSC02023	3.56e6	3.99e6	4.11e6
eIF3l (eukaryotic translation initiation factor 3 subunit l)	DRSC10530	3.39e6	3.81e6	3.81e6
CG16762	DRSC08493	3.60e6	4.06e6	4.09e6
CG32278 + CG14963	DRSC22203	3.59e6	4.09e6	4.01e6
Or35a (Odorant receptor 35a)	DRSC03389	3.55e6	3.99e6	4.06e6
Tdg (Thymine DNA glycosylase)	DRSC17119	3.50e6	3.96e6	3.99e6
Tdg (Thymine DNA glycosylase)	DRSC17169	3.47e6	3.96e6	3.90e6
CG14441	DRSC17934	3.02e6	3.55e6	3.46e6
Ocrl (Oculocerebrorenal syndrome of Lowe)	DRSC18576	3.65e6	4.21e6	4.03e6
glob2 (globin 2)	DRSC12560	3.56e6	3.84e6	4.24e6
Phk-3 (Pherokine 3)	DRSC04547	3.64e6	4.19e6	4.07e6
CG32712	DRSC17820	3.63e6	4.21e6	4.00e6
CG34304 (retired record)	DRSC12810	3.41e6	3.85e6	3.90e6
mu2 (mutator 2)	DRSC08726	3.57e6	4.00e6	4.08e6
mu2 (mutator 2)	DRSC21534	3.48e6	4.01e6	3.91e6
CG11714	DRSC09857	3.58e6	4.16e6	3.96e6
TTLL1A (Tubulin tyrosine ligase-like 1A)	DRSC20121	3.66e6	4.34e6	3.99e6
Scr (Sex combs reduced)	DRSC12604	2.98e6	3.61e6	3.62e6
Scr (Sex combs reduced)	DRSC23141	3.62e6	4.22e6	3.99e6
CG6800	DRSC16119	3.56e6	3.99e6	4.09e6
mamo (maternal gene required for meiosis)	DRSC19370	3.43e6	3.88e6	3.87e6
Roc1a (Regulator of cullins 1a)	DRSC18483	3.22e6	3.70e6	3.74e6
CG45105	DRSC15002	3.25e6	3.70e6	3.64e6
CG45105	DRSC15833	3.26e6	3.74e6	3.63e6
Rbp1-like	DRSC19828	3.74e6	4.22e6	4.21e6
Rbp1-like	DRSC22075	3.71e6	4.15e6	4.17e6
CG7006	DRSC16169	3.46e6	3.91e6	3.95e6
Lasp	DRSC10379	3.41e6	3.84e6	3.86e6
CG13272	DRSC02249	3.58e6	4.01e6	4.10e6
CG13272	DRSC22910	3.50e6	3.99e6	3.96e6
trh (trachealess)	DRSC08355	3.54e6	3.95e6	4.06e6
trh (trachealess)	DRSC08739	3.58e6	4.07e6	4.04e6
Xbp1 (X box binding protein-1)	DRSC04553	1.97e6	4.02e6	
Xbp1 (X box binding protein-1)	DRSC21624	3.49e6	3.97e6	3.98e6
CG13197	DRSC06322	3.69e6	4.07e6	4.12e6
CG6454	DRSC16044	3.54e6	4.03e6	4.00e6
RpL22 (Ribosomal protein L22)	DRSC18707	3.61e6	4.11e6	4.09e6
RpL22 (Ribosomal protein L22)	DRSC22819	2.47e6	3.55e6	3.55e6
or (orange)	DRSC04329	3.66e6	4.37e6	3.93e6
fln (flightin)	DRSC11346	3.61e6	4.10e6	4.08e6
CG12288	DRSC02155	3.58e6	4.08e6	4.03e6
CG4462	DRSC15583	3.63e6	4.14e6	4.06e6
Ets97D (Ets at 97D)	DRSC16665	3.65e6	4.21e6	4.07e6
CG11069	DRSC14289	3.53e6	4.09e6	3.92e6
Obp46a (Odorant-binding protein 46a)	DRSC06220	3.49e6	4.01e6	3.92e6
Pcmt (Protein-L-isoaspartate (D-aspartate) O-methyltransferase)	DRSC12363	3.51e6	3.96e6	4.01e6
CG15564	DRSC15102	3.40e6	3.84e6	3.81e6
CG31301	DRSC22164	3.29e6	3.78e6	3.88e6
Cpr49Ac (Cuticular protein 49Ac)	DRSC07199	3.66e6	3.95e6	4.37e6
nerfin-2 (nervous fingers 2)	DRSC14547	3.54e6	4.04e6	4.00e6
Slc45-1	DRSC10427	3.42e6	3.94e6	3.79e6
mTerf5 (mitochondrial transcription termination factor 5)	DRSC16209	3.69e6	4.11e6	4.20e6
Cbs (Cystathionine beta-synthase)	DRSC20553	3.53e6	4.05e6	3.97e6
CG6083	DRSC10580	3.51e6	4.10e6	3.86e6
CG30486	DRSC06680	3.50e6	3.98e6	3.94e6
betaNACtes4 (Nascent-associated complex beta-subunit-like, testis 4)	DRSC19801	3.69e6	4.12e6	4.18e6
scrib (scribble)	DRSC13774	3.49e6	4.01e6	3.91e6
scrib (scribble)	DRSC15809	3.48e6	3.91e6	3.99e6
scrib (scribble)	DRSC17051	3.40e6	3.80e6	3.85e6
CG7747	DRSC07038	3.55e6	4.02e6	4.03e6
Rcd7 (Reduction in Cnn dots 7)	DRSC10100	3.53e6	3.92e6	4.07e6
Jon99Ci (Jonah 99Ci)	DRSC16860	3.50e6	4.02e6	3.90e6

Targets listed so far whose target name starts with M or m (4):
gene	amplicon	mean viability with MMS	viability with MMS, replicate 1	viability with MMS, replicate 2
mu2 (mutator 2)	DRSC08726	3.57e6	4.00e6	4.08e6
mu2 (mutator 2)	DRSC21534	3.48e6	4.01e6	3.91e6
mamo (maternal gene required for meiosis)	DRSC19370	3.43e6	3.88e6	3.87e6
mTerf5 (mitochondrial transcription termination factor 5)	DRSC16209	3.69e6	4.11e6	4.20e6
